We go through 22 targets from the supplement of paper PMC11006884.

Sequences of proteins named here, by UniProt entry; tags and fusion partners are left off. A change or cut given only in a name is not applied to a line headed by its entry.
UniProt Q14980: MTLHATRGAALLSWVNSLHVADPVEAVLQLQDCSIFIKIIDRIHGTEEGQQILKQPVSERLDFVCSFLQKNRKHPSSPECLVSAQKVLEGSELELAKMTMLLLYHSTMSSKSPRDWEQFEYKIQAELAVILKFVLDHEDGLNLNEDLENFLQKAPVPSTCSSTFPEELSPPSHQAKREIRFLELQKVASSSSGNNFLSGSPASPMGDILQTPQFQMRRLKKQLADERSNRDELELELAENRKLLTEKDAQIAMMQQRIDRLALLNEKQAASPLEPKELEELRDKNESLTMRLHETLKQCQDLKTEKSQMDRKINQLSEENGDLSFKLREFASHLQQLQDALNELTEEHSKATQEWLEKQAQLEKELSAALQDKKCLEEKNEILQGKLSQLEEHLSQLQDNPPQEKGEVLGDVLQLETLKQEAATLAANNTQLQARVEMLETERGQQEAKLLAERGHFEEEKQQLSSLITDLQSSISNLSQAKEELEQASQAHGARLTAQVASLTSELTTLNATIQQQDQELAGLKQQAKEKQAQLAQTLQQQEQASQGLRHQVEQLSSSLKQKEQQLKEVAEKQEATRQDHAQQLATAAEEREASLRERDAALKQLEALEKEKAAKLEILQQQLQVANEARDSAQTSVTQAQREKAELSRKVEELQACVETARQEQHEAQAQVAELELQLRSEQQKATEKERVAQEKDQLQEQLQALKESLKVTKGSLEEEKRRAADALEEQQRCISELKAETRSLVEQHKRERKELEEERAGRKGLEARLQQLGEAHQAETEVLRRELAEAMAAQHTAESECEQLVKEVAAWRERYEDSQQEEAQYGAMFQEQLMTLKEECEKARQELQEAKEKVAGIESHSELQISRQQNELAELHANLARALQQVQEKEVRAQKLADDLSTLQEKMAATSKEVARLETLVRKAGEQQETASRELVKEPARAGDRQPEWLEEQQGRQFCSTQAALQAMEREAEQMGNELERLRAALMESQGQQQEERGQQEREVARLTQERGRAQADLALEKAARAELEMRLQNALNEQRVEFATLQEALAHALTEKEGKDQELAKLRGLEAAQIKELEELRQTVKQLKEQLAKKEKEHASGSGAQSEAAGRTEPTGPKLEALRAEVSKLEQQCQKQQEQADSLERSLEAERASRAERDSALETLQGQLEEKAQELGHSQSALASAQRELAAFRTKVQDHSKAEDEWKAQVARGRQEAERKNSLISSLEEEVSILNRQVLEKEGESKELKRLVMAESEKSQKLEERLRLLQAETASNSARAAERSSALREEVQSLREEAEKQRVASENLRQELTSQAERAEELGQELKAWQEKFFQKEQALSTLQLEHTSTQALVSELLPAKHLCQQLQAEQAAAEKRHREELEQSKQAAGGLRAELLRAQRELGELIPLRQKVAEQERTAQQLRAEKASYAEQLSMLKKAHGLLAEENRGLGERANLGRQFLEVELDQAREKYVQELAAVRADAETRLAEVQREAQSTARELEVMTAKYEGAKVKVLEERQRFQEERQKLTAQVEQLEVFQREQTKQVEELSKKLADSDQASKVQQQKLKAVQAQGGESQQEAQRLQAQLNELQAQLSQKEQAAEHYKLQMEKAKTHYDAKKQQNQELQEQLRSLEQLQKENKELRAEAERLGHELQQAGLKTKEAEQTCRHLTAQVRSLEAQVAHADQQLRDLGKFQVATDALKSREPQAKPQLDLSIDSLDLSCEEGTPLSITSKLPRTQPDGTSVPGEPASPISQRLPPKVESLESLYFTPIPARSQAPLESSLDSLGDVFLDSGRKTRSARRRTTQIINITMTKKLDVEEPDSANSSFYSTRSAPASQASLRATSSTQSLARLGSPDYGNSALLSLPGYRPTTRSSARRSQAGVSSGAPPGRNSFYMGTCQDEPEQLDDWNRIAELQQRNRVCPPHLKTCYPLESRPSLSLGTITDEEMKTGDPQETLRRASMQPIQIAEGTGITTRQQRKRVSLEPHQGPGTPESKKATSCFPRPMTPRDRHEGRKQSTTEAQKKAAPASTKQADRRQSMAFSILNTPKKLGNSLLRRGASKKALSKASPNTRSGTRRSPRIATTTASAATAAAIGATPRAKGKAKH
UniProt Q14CS0: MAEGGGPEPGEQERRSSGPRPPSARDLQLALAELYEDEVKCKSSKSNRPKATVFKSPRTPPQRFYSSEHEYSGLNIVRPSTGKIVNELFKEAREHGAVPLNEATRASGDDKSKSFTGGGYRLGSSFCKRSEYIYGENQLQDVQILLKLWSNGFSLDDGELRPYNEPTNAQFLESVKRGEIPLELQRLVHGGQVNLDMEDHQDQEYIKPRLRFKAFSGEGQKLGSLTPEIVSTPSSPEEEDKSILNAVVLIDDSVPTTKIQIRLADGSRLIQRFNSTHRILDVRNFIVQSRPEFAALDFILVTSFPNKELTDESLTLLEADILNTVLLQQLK
UniProt Q14141: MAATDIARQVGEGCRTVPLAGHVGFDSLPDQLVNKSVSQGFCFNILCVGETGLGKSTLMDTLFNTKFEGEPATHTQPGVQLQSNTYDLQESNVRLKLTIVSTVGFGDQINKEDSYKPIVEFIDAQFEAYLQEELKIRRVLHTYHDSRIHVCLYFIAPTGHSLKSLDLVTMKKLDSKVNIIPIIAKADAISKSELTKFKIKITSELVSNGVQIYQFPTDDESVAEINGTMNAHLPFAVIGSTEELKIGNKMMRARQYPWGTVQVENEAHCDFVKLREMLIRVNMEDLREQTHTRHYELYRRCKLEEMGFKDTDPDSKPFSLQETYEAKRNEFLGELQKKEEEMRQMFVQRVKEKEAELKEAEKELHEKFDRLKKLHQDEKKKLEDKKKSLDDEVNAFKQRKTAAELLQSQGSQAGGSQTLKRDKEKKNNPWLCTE
UniProt Q13608: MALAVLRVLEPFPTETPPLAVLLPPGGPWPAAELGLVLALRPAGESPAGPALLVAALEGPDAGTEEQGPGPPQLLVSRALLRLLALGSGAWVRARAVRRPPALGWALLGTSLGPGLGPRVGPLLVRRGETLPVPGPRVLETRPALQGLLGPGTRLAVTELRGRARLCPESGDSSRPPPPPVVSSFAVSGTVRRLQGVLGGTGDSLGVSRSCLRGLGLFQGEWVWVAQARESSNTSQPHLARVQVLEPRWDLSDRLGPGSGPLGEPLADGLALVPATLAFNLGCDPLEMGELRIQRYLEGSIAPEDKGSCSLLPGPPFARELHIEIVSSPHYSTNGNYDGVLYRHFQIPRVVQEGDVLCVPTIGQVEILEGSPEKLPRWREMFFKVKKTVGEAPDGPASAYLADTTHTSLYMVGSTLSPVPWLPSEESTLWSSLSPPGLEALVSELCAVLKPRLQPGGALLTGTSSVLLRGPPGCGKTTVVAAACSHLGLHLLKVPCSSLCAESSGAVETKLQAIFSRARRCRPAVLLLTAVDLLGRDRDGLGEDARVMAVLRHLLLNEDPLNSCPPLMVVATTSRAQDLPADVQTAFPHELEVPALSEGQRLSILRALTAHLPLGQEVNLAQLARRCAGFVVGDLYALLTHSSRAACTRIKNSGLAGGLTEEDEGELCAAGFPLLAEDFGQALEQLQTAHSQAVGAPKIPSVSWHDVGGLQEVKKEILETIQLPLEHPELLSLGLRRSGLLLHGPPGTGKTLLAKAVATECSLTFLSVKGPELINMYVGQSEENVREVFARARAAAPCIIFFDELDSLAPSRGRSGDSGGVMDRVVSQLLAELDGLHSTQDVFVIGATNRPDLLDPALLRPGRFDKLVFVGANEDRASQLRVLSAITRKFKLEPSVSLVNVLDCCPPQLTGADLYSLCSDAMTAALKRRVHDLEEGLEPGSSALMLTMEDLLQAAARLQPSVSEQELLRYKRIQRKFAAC
UniProt Q14671: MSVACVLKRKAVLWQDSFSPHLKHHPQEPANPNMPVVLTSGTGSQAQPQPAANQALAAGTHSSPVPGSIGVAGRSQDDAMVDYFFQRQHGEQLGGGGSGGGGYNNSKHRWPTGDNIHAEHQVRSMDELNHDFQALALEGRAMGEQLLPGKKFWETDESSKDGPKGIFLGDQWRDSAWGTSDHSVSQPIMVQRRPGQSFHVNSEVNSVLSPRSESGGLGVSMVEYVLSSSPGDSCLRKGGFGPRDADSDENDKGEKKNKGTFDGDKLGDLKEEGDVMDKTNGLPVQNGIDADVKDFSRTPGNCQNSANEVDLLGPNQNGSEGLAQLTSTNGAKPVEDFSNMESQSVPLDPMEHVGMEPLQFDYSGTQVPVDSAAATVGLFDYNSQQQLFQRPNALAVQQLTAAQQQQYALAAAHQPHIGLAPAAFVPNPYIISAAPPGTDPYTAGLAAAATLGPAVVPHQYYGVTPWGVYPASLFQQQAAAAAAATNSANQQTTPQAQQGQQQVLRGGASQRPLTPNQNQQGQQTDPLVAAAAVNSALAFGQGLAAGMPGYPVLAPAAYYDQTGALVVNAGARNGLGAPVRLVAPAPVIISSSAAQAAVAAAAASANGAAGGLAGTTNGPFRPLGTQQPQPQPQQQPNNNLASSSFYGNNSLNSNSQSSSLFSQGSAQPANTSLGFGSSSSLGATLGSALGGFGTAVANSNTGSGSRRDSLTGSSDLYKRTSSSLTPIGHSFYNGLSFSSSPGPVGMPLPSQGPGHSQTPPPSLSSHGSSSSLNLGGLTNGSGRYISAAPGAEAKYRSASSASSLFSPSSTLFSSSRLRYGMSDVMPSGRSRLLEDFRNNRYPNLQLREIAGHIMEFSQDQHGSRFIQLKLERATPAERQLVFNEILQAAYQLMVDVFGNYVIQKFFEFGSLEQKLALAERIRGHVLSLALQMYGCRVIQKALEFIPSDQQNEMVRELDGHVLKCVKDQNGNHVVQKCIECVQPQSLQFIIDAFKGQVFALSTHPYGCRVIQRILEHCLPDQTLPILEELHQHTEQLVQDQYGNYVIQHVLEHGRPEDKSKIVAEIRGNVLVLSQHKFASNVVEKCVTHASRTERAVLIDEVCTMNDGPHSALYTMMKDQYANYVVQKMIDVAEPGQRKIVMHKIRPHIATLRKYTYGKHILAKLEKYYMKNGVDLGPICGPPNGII
UniProt Q14684: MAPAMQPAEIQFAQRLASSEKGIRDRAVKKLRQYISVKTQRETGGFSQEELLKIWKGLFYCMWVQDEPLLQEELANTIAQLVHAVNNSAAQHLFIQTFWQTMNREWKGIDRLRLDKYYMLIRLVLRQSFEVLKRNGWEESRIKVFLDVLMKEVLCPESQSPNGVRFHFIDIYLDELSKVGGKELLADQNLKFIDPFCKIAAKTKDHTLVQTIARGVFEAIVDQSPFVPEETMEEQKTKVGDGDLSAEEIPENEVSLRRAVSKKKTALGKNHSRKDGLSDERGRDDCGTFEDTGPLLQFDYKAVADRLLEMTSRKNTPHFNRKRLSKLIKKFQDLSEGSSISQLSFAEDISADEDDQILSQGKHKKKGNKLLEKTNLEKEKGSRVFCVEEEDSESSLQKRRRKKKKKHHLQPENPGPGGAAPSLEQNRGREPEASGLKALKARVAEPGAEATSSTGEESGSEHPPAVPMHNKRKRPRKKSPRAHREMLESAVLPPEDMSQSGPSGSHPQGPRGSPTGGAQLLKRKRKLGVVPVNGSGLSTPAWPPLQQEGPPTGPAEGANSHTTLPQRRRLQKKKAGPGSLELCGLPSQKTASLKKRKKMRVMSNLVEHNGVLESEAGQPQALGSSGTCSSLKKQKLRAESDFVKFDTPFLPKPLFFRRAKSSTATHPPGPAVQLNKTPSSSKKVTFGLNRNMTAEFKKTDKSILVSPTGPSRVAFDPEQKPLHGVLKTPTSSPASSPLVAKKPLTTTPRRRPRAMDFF
UniProt Q15005: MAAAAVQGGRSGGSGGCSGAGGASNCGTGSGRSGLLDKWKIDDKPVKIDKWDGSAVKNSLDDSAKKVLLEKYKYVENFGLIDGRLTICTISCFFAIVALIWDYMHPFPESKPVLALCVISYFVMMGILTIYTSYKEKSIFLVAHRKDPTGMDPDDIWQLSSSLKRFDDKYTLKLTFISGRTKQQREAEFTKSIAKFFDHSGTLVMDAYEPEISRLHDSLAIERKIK
UniProt Q13555: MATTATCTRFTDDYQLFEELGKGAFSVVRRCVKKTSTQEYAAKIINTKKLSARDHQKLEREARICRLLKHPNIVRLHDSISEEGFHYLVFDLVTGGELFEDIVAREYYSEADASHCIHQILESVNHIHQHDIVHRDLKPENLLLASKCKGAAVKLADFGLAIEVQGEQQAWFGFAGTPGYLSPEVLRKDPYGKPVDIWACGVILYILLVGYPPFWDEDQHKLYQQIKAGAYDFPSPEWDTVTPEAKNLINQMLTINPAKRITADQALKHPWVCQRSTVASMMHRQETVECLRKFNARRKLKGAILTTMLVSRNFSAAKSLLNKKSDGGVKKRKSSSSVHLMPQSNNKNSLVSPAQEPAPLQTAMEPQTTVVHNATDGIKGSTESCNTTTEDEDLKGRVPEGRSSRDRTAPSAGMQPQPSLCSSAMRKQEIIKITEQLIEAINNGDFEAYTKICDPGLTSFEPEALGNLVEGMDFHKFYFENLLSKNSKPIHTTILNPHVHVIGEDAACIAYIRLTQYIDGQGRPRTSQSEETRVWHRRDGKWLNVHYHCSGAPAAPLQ

The list shows a part of the results, in another mix than the full data.

Compound in the test: COC(=O)C#Cc1ccccc1 [methyl 3-phenylpropiolate]
Briefly: log2 ratio of iodoacetamide-alkyne labeling of the cysteine site, DMSO over compound (competition); higher = stronger covalent engagement of the cysteine by the compound, active = 1 or more. As to conditions: 500 µM; treatment time 1 h; system: HEK293T cell lysate. Put shortly: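 Electrophile (500 µM) or vehicle was added to HEK293T lysate (2 mg/mL) for 1 h at ambient temperature before iodoacetamide alkyne labelling (1 h) and click coupling to sCIP-TMT reagents. After pooling, overnight trypsin digestion at 37 °C, streptavidin enrichment and acid elution, peptides were measured by Orbitrap Eclipse LC-MS/MS with FAIMS and quantified in FragPipe. Each cysteine's log2 competition ratio compares mean control-channel with mean compound-channel reporter intensity, control over compound. Data came from duplicate channels across three replicates, excluding cysteines quantified in only one replicate.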

With NUMA1 C299 (UniProt Q14980), the “log2 ratio of iodoacetamide-alkyne labeling” value (shortened to “log2 ratio”) was inactive: 0.102.

For the target UBXN2B C41 (UniProt Q14CS0), the “log2 ratio” value is inactive: 0.407.

Regarding GANAB C822 (UniProt Q14697), the “log2 ratio” value is inactive: 0.538.

On to UniProt Q13885_C12, for which the “log2 ratio” value was inactive: 0.783.

On to UniProt Q14141_C432, for which the “log2 ratio” value was inactive: 0.169.

Take PEX6 C798 (UniProt Q13608): the “log2 ratio” value is inactive: 0.255.

With UniProt Q14004_C1017, the “log2 ratio” value is inactive: 0.529.

Take NUMA1 C375 (UniProt Q14980): the “log2 ratio” value is inactive: -0.109.

With PUM1 C234 (UniProt Q14671), the “log2 ratio” value is inactive: 0.334.

On to PUM1 C1179 (UniProt Q14671), for which the “log2 ratio” value was inactive: 0.0434.

With UBE4A C1002 (UniProt Q14139), the “log2 ratio” value is inactive: 0.466.

Regarding DYNC1H1 C4644 (UniProt Q14204), the “log2 ratio” value was inactive: 0.211.

Take RRP1B C197 (UniProt Q14684): the “log2 ratio” value was inactive: -0.00154.

As for SPCS2 C26 (UniProt Q15005), the “log2 ratio” value is active: 1.62.

For the target BOP1 C373 (UniProt Q14137), the “log2 ratio” value was inactive: 0.0315.

CAMK2G C273 (UniProt Q13555): the “log2 ratio” value is inactive: 0.506.

As to ZMYM3 C1326 (UniProt Q14202), the “log2 ratio” value is inactive: 0.196.

SPCS2 C17 (UniProt Q15005): the “log2 ratio” value is inactive: 0.769.

With HLTF C812 (UniProt Q14527), the “log2 ratio” value was inactive: 0.0664.

UBE4A C79 (UniProt Q14139): the “log2 ratio” value was inactive: 0.178.

For the target SQSTM1 C128 (UniProt Q13501), the “log2 ratio” value is inactive: 0.051.

As to FLNC C1735 (UniProt Q14315), the “log2 ratio” value was inactive: 0.192.
